From patent US20020103111A1 (Millennium Pharmaceuticals, Inc., priority 1996, published 2002)
Square brackets hold non-standard residues; d marks the D form. Ends that are not written are not given here. NMeL = CN[C@@H](CC(C)C)C(=O)O

assay: general procedure: Fmoc solid-phase peptide synthesis; Rink Amide AM resin (Fmoc-Am-PS, 0.5 mmol/g); HBTU/NMM or PYBOP/NMM, double coupling; conditions: whole synthesis, scale of the general procedure 50 mg or 100 mg resin (0.5 mmol/g)

Going from 2-Anc-Leu-Asp-Thr-Ser-Leu to Ac-Arg-Gly-Leu-Asp-Thr, the “crude HPLC purity” value falls from 63% to 45%.

First: Ac-Cys*-Gly-Leu-Asp-Thr-Ser-Leu-Gly-Cys*
Second: Ac-Cys*-Leu-Asp-Thr-Ser-Leu-Cys*
The “crude HPLC purity” value of the first is higher: 80% for the first, 67% for the second.

Going from Ac-GLDTSL to Ac-Gly-Leu-Asp-Thr-Ser, the “crude HPLC purity” value rises from 67% to 73%.

Compared with Ac-Leu-Asp-Ala-Ser-Leu, Ac-Leu-Asp-HyP-Ser-Leu is higher in “crude HPLC purity” value: 78% for the first, 79% for the second.

First: Ac-Leu-Asp-Ser-Ser-Leu
Second: Ac-Leu-Asp-Thr-Ser-Phe
The “crude HPLC purity” value of the first is higher: 86% for the first, 80% for the second.

First: Ac-Leu-Asp-Thr-Thr-Leu
Second: Ac-Leu-Asp-Val-Ser-Leu
The “crude HPLC purity” value of the first is lower: 71% for the first, 93% for the second.

First: Ac-Leu-Glu-Thr-Ser-Leu
Second: Ac-Leu-Phe-Thr-Ser-Leu
The “crude HPLC purity” value of the first is lower: 85% for the first, 86% for the second.

Compared with Ac-Lle-Asp-Thr-Ser-Leu, Ac-MeLeu-Asp-Thr-Ser-Leu is lower in “crude HPLC purity” value: 79% for the first, 65% for the second.

First: Ac-[NMeL]LDTSL
Second: Bipa-Leu-Asp-Thr-Ser-Leu
The “crude HPLC purity” value of the first is lower: 50% for the first, 80% for the second.

First: Cpc-Asp-Thr-Ser-Leu
Second: Dpa-Leu-Asp-Thr-Ser-Leu
The “crude HPLC purity” value of the first is lower: 73% for the first, 87% for the second.

First: Dphb-Leu-Asp-Thr-Ser-Leu
Second: Flc-Leu-Asp-Thr-Ser-Leu
The “crude HPLC purity” value of the first is higher: 87% for the first, 71% for the second.

Compared with Hbz-Leu-Asp-Thr-Ser-Leu, Paa-Leu-Asp-Thr-Ser-Leu is higher in “crude HPLC purity” value: 77% for the first, 81% for the second.

Compared with Pba-Asp-Thr-Ser-Leu, Pba-Leu-Ala-Thr-Ser-Leu is lower in “crude HPLC purity” value: 85% for the first, 84% for the second.

First: Pba-Leu-Tyr-Thr-Ser-Leu
Second: Pba-Pro-Leu-Asp-Thr-Ser-Leu
The “crude HPLC purity” value of the first is higher: 95% for the first, 77% for the second.

Going from Pca-Leu-Asp-Thr-Ser-Leu to Pha-Leu-Asp-Thr-Ser-Leu, the “crude HPLC purity” value rises from 80% to 86%.

In the case of [NMeL]LDTSL, the “crude HPLC purity” value is reported as 86%.

same assay, conditions: whole synthesis, scale of the general procedure 50 mg or 100 mg resin (0.5 mmol/g), run 1

First: Ac-Leu-Asp-Thr-Ser-Leu
Second: Ac-Leu-Asp-Thr-Ser-Leu [0104-1A]
The “crude HPLC purity” value of the first is higher: 75% for the first, 47% for the second.

With Ac-Leu-Asp-Thr-Ser-Leu [00389-1A] the “crude HPLC purity” value was 61%.

For Ac-RGLDTS, the “crude HPLC purity” value was 32,34%.
For Ac-RGLDTSL, the “crude HPLC purity” value was 34,41%.
With Npa-Leu-Asp-Thr-Ser-Leu the “crude HPLC purity” value was 38,48%.
